Experimental data published in doi:10.1101/2025.01.31.636011.
Results are given in words; binding and its absence hold for the method and conditions named. Binding seen in cells or lysates may run through a third protein. A result given as binding can be weak or reduced; the word gives no strength. Tags and fused reporters may be left off the sequences shown.

Target: T1, PgBamG (PGN_1735) with a C-terminal 7His-tag (Porphyromonas gingivalis) (UniProt B2RLK9)
T1 sequence (chain, tri-acylated lipid anchor; O-glycosylation, 7 sites): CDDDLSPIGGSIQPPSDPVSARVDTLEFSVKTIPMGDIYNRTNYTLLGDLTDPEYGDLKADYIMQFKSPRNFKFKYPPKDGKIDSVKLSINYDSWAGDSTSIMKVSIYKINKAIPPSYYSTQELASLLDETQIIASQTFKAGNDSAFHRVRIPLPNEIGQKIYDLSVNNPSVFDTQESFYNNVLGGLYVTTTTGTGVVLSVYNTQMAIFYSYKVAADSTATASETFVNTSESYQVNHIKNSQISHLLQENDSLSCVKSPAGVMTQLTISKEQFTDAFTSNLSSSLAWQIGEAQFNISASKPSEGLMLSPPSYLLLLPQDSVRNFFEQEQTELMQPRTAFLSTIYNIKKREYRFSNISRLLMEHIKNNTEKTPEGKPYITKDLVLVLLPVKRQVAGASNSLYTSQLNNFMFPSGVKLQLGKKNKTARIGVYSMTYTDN
Assay: cryo-EM structure

Substance: PgBamI
- binding: binds
